Data reported in PMC12371199, “Identification of c‐Met on Tumor Cells as a Novel Receptor for B7‐H3 Entails Implications for Cancer Cell Stemness and Targeted Therapy” (MedComm, 2025).
These are yes or no findings as the source states them, for the method shown. For some of these results: In cells and extracts the contact can be indirect. Some binding calls cover weakened binding; strength is not graded here. For some of these results: Sequences can lack the tags named with a protein. Each block holds one molecule with its values, some of them ahead of it.

By UniProt entry, the sequences of proteins in these tests, tags left out. Where a name states a change or a piece, a line headed by the entry shows the natural chain unless it says otherwise. Residues count along the entry.
UniProt P08581: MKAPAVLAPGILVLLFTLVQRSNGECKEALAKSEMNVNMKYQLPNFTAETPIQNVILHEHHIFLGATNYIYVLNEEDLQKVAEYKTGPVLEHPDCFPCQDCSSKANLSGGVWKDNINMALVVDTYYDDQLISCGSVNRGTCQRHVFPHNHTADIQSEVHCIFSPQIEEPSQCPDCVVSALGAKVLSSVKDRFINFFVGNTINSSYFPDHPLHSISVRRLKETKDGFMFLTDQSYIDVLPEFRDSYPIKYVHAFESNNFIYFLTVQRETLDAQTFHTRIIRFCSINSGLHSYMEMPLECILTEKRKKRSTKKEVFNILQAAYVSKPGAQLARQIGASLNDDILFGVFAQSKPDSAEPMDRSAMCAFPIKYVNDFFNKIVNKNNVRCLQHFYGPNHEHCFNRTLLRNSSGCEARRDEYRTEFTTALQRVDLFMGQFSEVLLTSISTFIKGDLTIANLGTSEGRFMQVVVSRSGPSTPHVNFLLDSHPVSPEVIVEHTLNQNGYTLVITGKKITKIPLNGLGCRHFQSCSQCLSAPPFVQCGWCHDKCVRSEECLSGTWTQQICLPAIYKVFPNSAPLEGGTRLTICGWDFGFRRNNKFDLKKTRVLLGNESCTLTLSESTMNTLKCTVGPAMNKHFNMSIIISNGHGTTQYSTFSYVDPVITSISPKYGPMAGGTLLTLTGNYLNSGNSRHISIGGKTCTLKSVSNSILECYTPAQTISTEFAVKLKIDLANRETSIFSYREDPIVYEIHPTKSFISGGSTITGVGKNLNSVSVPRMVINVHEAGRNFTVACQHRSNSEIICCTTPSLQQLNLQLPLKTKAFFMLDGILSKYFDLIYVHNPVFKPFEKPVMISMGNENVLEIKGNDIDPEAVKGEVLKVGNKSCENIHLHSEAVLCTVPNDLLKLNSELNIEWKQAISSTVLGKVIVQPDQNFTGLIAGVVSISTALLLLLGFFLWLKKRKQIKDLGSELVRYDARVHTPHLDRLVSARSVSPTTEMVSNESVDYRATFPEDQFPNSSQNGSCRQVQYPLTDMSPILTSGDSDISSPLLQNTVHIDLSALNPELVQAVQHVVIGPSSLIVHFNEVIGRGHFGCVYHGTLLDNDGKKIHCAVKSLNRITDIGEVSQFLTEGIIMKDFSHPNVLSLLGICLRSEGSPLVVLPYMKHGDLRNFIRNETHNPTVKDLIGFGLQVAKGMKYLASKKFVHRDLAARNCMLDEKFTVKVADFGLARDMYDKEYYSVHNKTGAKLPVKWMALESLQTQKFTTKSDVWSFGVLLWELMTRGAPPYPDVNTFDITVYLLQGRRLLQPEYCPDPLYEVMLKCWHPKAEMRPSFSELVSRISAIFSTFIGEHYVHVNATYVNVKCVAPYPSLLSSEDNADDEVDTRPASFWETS
c‐Met (endogenous, in tumor cell lines) (human (endogenous in U87MG, SW480, HCT116)): residues 25-1390 of P08581
purified recombinant extracellular domain of c‐Met (from Met1 to Thr932), c‐Met‐his: residues 25-932 of P08581
UniProt P14210, residues 32-728: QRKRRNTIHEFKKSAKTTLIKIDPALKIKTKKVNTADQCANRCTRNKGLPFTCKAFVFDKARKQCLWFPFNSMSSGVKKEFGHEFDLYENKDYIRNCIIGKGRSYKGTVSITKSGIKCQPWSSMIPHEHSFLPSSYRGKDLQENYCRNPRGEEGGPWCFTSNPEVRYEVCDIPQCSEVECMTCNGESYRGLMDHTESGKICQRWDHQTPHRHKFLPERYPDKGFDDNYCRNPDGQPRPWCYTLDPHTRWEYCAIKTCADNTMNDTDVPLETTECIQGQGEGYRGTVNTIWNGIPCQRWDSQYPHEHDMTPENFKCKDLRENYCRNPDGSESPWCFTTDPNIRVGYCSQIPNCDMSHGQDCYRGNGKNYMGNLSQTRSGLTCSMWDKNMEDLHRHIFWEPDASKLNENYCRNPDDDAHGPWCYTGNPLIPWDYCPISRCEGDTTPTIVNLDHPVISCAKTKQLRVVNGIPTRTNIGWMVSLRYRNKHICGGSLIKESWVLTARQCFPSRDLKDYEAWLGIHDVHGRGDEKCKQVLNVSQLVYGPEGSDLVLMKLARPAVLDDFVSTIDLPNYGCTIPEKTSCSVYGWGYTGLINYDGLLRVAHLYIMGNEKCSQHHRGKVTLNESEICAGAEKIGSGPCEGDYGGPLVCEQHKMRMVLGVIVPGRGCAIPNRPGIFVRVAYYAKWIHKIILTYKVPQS

How the values were obtained:
[1] = target: purified recombinant extracellular domain of c‐Met (from Met1 to Thr932), c‐Met‐his (human) (UniProt P08581); assay: ELISA; plates pre‐coated with c‐Met (5 or 10 µg/mL) or PD‐1 (10 µg/mL); B7‐H3 (5 µg/mL or gradient) or HGF (1 µg/mL) in solution; both purified
[2] = target: T1, HA‐strep tagged B7‐H3 (human) (UniProt Q5ZPR3); assay: co-IP; lysates of U87MG or SW480 cells overexpressing HA‐strep tagged B7‐H3; immunoprecipitation with anti‐HA antibody, blot with anti‐c‐Met antibody
T1 sequence: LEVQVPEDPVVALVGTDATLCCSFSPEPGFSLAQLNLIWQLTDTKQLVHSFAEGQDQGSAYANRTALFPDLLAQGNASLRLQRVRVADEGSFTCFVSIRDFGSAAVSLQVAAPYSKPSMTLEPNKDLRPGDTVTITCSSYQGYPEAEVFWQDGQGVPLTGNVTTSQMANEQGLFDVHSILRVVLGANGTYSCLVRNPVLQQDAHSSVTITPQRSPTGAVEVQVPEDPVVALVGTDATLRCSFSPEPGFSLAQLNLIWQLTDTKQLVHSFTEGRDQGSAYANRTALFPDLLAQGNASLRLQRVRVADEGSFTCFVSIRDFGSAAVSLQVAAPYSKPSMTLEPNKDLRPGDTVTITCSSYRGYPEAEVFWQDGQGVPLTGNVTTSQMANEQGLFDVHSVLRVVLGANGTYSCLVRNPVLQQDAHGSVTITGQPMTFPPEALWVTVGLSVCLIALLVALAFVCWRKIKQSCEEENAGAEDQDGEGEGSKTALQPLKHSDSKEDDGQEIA

[3] = target: c‐Met (endogenous, in tumor cell lines) (human (endogenous in U87MG, SW480, HCT116)) (UniProt P08581); assay: co-IP; cell lysate (SW480 overexpressing HA‐tagged B7‐H3) immunoprecipitated with anti‐c‐Met antibody, blot for HA‐tagged B7‐H3; IgG control
[4] = target: c‐Met (endogenous, in tumor cell lines) (human (endogenous in U87MG, SW480, HCT116)) (UniProt P08581); assay: proximity ligation; Duolink in situ PLA in HCT116 and U87MG cells with B7‐H3 and c‐Met antibodies; single antibodies as controls

binding [1]: binds
Molecule: HGF (from UniProt P14210 32-728) (ligand)

binding [2]: binds
Molecule: c‐Met (endogenous, in tumor cell lines) (from UniProt P08581 25-1390) (receptor)

binding [3]: binds
B1: HA‐strep tagged B7‐H3 (protein, UniProt Q5ZPR3 29-534)
chain: LEVQVPEDPVVALVGTDATLCCSFSPEPGFSLAQLNLIWQLTDTKQLVHSFAEGQDQGSAYANRTALFPDLLAQGNASLRLQRVRVADEGSFTCFVSIRDFGSAAVSLQVAAPYSKPSMTLEPNKDLRPGDTVTITCSSYQGYPEAEVFWQDGQGVPLTGNVTTSQMANEQGLFDVHSILRVVLGANGTYSCLVRNPVLQQDAHSSVTITPQRSPTGAVEVQVPEDPVVALVGTDATLRCSFSPEPGFSLAQLNLIWQLTDTKQLVHSFTEGRDQGSAYANRTALFPDLLAQGNASLRLQRVRVADEGSFTCFVSIRDFGSAAVSLQVAAPYSKPSMTLEPNKDLRPGDTVTITCSSYRGYPEAEVFWQDGQGVPLTGNVTTSQMANEQGLFDVHSVLRVVLGANGTYSCLVRNPVLQQDAHGSVTITGQPMTFPPEALWVTVGLSVCLIALLVALAFVCWRKIKQSCEEENAGAEDQDGEGEGSKTALQPLKHSDSKEDDGQEIA

binding [4]: binds
B2: B7‐H3 in HCT116 and U87MG cells (proximity ligation assay) (protein, UniProt Q5ZPR3 29-534)
chain: LEVQVPEDPVVALVGTDATLCCSFSPEPGFSLAQLNLIWQLTDTKQLVHSFAEGQDQGSAYANRTALFPDLLAQGNASLRLQRVRVADEGSFTCFVSIRDFGSAAVSLQVAAPYSKPSMTLEPNKDLRPGDTVTITCSSYQGYPEAEVFWQDGQGVPLTGNVTTSQMANEQGLFDVHSILRVVLGANGTYSCLVRNPVLQQDAHSSVTITPQRSPTGAVEVQVPEDPVVALVGTDATLRCSFSPEPGFSLAQLNLIWQLTDTKQLVHSFTEGRDQGSAYANRTALFPDLLAQGNASLRLQRVRVADEGSFTCFVSIRDFGSAAVSLQVAAPYSKPSMTLEPNKDLRPGDTVTITCSSYRGYPEAEVFWQDGQGVPLTGNVTTSQMANEQGLFDVHSVLRVVLGANGTYSCLVRNPVLQQDAHGSVTITGQPMTFPPEALWVTVGLSVCLIALLVALAFVCWRKIKQSCEEENAGAEDQDGEGEGSKTALQPLKHSDSKEDDGQEIA
